Reference: PubChem BioAssay AID652243 (Drosophila RNAi Screening Center, 2013)

- Screen: 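Fly genes required for human androgen receptor driven transcription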 (primary screen)
- Cell system: Drosophila S2R+ cells
- Knock-down reagent: long dsRNA against Drosophila genes
- Time to read-out: 72 h (48 h, then 24 h hormone)
- Conditions: synthetic androgen R1881 at 10 nM for 24 h
- Detection: 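Firefly light from an androgen-responsive reporter and Renilla control light per well, raw and unnormalised, for each of two replicates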
- Reading the numbers: firefly reporter light: higher = more light from androgen-responsive reporter; Renilla control light: higher = more constitutive control signal (cell number, transfection)
- Rule for the call: 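Hit when the log firefly-to-Renilla ratio dropped or increased by a fixed fold versus the mean of GFP or LacZ controls across duplicate plates; lowering cut given as 1.5 and as 3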
- Meaning of the calls: active = hit: reporter lowered or raised; inactive = no hit
In all, the deposit lists about 24,000 reagents; shown is an unselected part of those with a known target gene and a result. Over the whole deposit, 246 (1%) got an active call. 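Plates not normalised; calls are printed but the firefly/Renilla ratio behind them is not deposited; fold cut for lowering reported inconsistently.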 The raw values are shown without normalisation. No sequences are given here. Not stated in the record: the amount of reagent.

The first 3 records, to show the layout:
target gene | dsRNA | firefly reporter light, replicate 1 | firefly reporter light, replicate 2 | Renilla control light, replicate 1 | Renilla control light, replicate 2 | Outcome
CG18063 | DRSC01968 | 2.20e5 | 2.35e5 | 1.84e6 | 2.06e6 | inactive
lncRNA:CR40629 | DRSC38772 | 9.22e5 | 7.35e5 | 1.85e6 | 1.61e6 | inactive
CG31600 | DRSC22541 | 5.70e5 | 6.23e5 | 1.80e6 | 1.75e6 | inactive

Main list, from the start:
target gene | dsRNA | firefly reporter light, replicate 1 | firefly reporter light, replicate 2 | Renilla control light, replicate 1 | Renilla control light, replicate 2 | Outcome
CG18063 | DRSC01968 | 2.20e5 | 2.35e5 | 1.84e6 | 2.06e6 | inactive
lncRNA:CR40629 | DRSC38772 | 9.22e5 | 7.35e5 | 1.85e6 | 1.61e6 | inactive
CG31600 | DRSC22541 | 5.70e5 | 6.23e5 | 1.80e6 | 1.75e6 | inactive
CG31600 | DRSC30096 | 6.10e5 | 8.79e5 | 1.30e6 | 1.19e6 | inactive
Edg91 | DRSC16657 | 82654 | 23707 | 1.36e6 | 5.38e5 | inactive
Crg-1 | DRSC22882 | 6.80e5 | 1.07e6 | 8.99e5 | 1.28e6 | inactive
Crg-1 | DRSC29136 | 1.02e6 | 9.47e5 | 1.20e6 | 9.16e5 | inactive
Pop5 | DRSC10074 | 3.74e5 | 2.27e5 | 2.91e6 | 1.84e6 | inactive
CG9760 | DRSC11101 | 1.91e5 | 1.57e5 | 2.58e6 | 2.31e6 | inactive
CG9760 | DRSC28846 | 7.19e5 | 7.81e5 | 6.78e5 | 8.30e5 | inactive
Ama | DRSC12489 | 72413 | 58038 | 4.85e5 | 4.32e5 | inactive
Ogdh | DRSC09854 | 93551 | 1.01e5 | 5.83e5 | 6.20e5 | inactive
Ogdh | DRSC09855 | 2.14e5 | 1.39e5 | 1.97e6 | 1.66e6 | inactive
CG15253 | DRSC01871 | 1.36e5 | 1.20e5 | 1.65e6 | 1.57e6 | inactive
CG15253 | DRSC26826 | 3.91e5 | 4.08e5 | 8.96e5 | 4.62e5 | inactive
cdi | DRSC16922 | 62135 | 88277 | 9.03e5 | 1.04e6 | inactive
cdi | DRSC28376 | 2.47e5 | 4.30e5 | 6.97e5 | 1.15e6 | inactive
cdi | DRSC36651 | – | – | – | – | inactive
cdi | DRSC36652 | – | – | – | – | inactive
CG43131 | DRSC12046 | 5.87e5 | 3.86e5 | 2.70e6 | 3.11e6 | inactive
CBP | DRSC17746 | 1.40e5 | 1.67e5 | 8.48e5 | 5.94e5 | inactive
D19B | DRSC11134 | 1.03e5 | 77014 | 1.09e6 | 1.05e6 | inactive
D19B | DRSC25382 | 6.79e5 | 3.86e5 | 2.57e5 | 2.64e5 | inactive
su(w[a]) | DRSC18840 | 15713 | 23516 | 2.35e5 | 2.34e5 | active
su(w[a]) | DRSC29287 | 6.50e5 | 6.83e5 | 9.59e5 | 9.92e5 | inactive
CG31777 | DRSC00201 | 2.16e5 | 2.01e5 | 4.07e5 | 3.85e5 | inactive
CG33626 | DRSC37839 | 4.05e5 | 3.32e5 | 1.11e6 | 8.42e5 | inactive
Fst | DRSC16491 | 88279 | 86223 | 3.65e5 | 7.27e5 | inactive
Fst | DRSC24483 | 6.63e5 | 3.02e5 | 4.92e5 | 4.52e5 | inactive
Amnionless | DRSC00317 | 1.23e5 | 1.37e5 | 6.86e5 | 6.61e5 | inactive
CG3793 | DRSC01982 | 1.25e6 | 1.27e6 | 1.47e6 | 2.19e6 | inactive
RpLP1 | DRSC00783 | 1.43e5 | 1.45e5 | 3.75e5 | 3.92e5 | inactive
RpLP1 | DRSC22145 | 3.55e5 | 4.09e5 | 3.78e5 | 4.52e5 | inactive
RpLP1 | DRSC23411 | 8.05e5 | 4.65e5 | 8.63e5 | 3.42e5 | inactive
Jon65Aiv | DRSC10644 | 2.87e5 | 2.44e5 | 2.39e6 | 3.29e6 | inactive
Jon65Aiv | DRSC25179 | 8.45e5 | 6.42e5 | 7.84e5 | 8.26e5 | inactive
RpL10 | DRSC11947 | 2.32e5 | 1.85e5 | 3.74e6 | 4.10e6 | inactive
rogdi | DRSC10906 | 15717 | 22528 | 1.83e5 | 2.30e5 | inactive
Vmat | DRSC06961 | 8.35e5 | 1.17e6 | 2.71e6 | 2.69e6 | inactive
Vmat | DRSC06962 | 1.54e5 | 1.76e5 | 2.73e6 | 2.73e6 | inactive
Vmat | DRSC22223 | 4.14e5 | 3.70e5 | 1.18e6 | 1.20e6 | inactive
CG2931 | DRSC12324 | 60121 | 46843 | 1.43e6 | 1.23e6 | inactive
RpS21 | DRSC00833 | 3.07e5 | 3.34e5 | 2.62e6 | 2.67e6 | inactive
RpS21 | DRSC28234 | 2.29e5 | 5.90e5 | 5.47e5 | 1.06e6 | inactive
CG6191 | DRSC23127 | 7.12e5 | 7.13e5 | 9.85e5 | 9.56e5 | inactive
CG43316 | DRSC06297 | 1.97e5 | 1.99e5 | 1.36e6 | 1.02e6 | inactive
CG43316 | DRSC28460 | 1.72e5 | 3.21e5 | 4.18e5 | 8.54e5 | inactive
CG3223 | DRSC15468 | 91002 | 1.25e5 | 1.48e6 | 1.48e6 | inactive
CG3223 | DRSC28290 | 3.67e5 | 5.27e5 | 1.28e6 | 2.19e6 | inactive
CG11327 | DRSC02146 | 1.77e5 | 2.21e5 | 1.47e6 | 1.57e6 | inactive
CG9649 | DRSC16534 | 17679 | 29250 | 2.14e5 | 2.33e5 | inactive
CG9649 | DRSC23552 | 7.11e5 | 7.27e5 | 1.14e6 | 1.07e6 | inactive
CCAP | DRSC15674 | 1.71e5 | 1.25e5 | 2.22e6 | 1.88e6 | inactive
lectin-24Db | DRSC00553 | 7.92e5 | 8.71e5 | 2.24e6 | 2.48e6 | inactive
Tsf3 | DRSC06849 | 7.66e5 | 7.08e5 | 1.23e6 | 9.59e5 | inactive
CG30083 | DRSC05572 | 1.56e5 | 1.34e5 | 2.97e5 | 2.89e5 | inactive
CG6761 | DRSC10705 | 8.40e5 | 6.92e5 | 9.59e5 | 8.85e5 | inactive
CG9676 | DRSC20204 | 2.72e5 | 2.86e5 | 3.66e6 | 2.99e6 | inactive
DMAP1 | DRSC06044 | 2.09e6 | 1.66e6 | 1.98e6 | 1.56e6 | inactive
DMAP1 | DRSC26559 | 5.12e5 | 4.93e5 | 4.90e5 | 4.36e5 | inactive
l(2)37Cd | DRSC02069 | 6.87e5 | 8.12e5 | 1.35e6 | 1.68e6 | inactive
CG5646 | DRSC15853 | 1.00e5 | 78137 | 6.20e5 | 5.16e5 | inactive
CG5646 | DRSC29759 | 7.56e5 | 7.81e5 | 1.23e6 | 1.74e6 | inactive
put | DRSC17039 | 94826 | 1.03e5 | 8.99e5 | 6.79e5 | active
put | DRSC36611 | – | – | – | – | inactive
put | DRSC36612 | – | – | – | – | inactive
PPP4R2r | DRSC18695 | 3.53e5 | 2.92e5 | 2.52e6 | 2.73e6 | inactive
PPP4R2r | DRSC21503 | 7.65e5 | 5.42e5 | 3.23e6 | 2.15e6 | inactive
PPP4R2r | DRSC27825 | 2.05e5 | 1.52e5 | 2.64e5 | 5.10e5 | active
ImpE2 | DRSC08665 | 8.73e5 | 9.22e5 | 1.08e6 | 1.52e6 | inactive
ImpE2 | DRSC28588 | 4.89e5 | 4.98e5 | 1.55e6 | 1.66e6 | inactive
CG3726 | DRSC23143 | 7.54e5 | 6.76e5 | 1.35e6 | 1.40e6 | inactive
CG3726 | DRSC27453 | 2.60e5 | 2.52e5 | 7.01e5 | 6.31e5 | inactive
fusl | DRSC02351 | 2.99e5 | 4.96e5 | 7.49e5 | 7.52e5 | inactive
fusl | DRSC28283 | 4.18e5 | 5.11e5 | 1.05e6 | 1.43e6 | inactive
